These are yes or no findings as the source states them, for the method shown. For some of these results: Binding seen in cells or lysates may run through a third protein. Some results given as binding are weak or reduced against the parent protein; the word gives no strength.

Sequences of proteins named here, by UniProt entry; tags and fusion partners are left off. A change or cut given only in a name is not applied to a line headed by its entry.
UniProt Q80V72: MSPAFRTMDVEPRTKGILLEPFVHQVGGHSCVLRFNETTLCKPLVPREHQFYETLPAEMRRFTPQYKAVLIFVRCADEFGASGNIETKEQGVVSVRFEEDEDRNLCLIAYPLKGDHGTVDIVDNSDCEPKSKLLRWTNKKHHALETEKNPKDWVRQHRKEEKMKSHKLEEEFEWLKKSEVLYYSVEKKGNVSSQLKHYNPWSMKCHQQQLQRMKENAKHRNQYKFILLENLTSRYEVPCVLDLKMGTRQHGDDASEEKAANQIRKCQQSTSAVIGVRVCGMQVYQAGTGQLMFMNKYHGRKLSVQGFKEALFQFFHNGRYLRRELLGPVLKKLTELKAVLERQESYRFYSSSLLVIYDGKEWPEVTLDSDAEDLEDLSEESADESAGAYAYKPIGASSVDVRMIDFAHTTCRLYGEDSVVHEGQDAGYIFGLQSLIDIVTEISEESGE
UniProt Q9UHH9: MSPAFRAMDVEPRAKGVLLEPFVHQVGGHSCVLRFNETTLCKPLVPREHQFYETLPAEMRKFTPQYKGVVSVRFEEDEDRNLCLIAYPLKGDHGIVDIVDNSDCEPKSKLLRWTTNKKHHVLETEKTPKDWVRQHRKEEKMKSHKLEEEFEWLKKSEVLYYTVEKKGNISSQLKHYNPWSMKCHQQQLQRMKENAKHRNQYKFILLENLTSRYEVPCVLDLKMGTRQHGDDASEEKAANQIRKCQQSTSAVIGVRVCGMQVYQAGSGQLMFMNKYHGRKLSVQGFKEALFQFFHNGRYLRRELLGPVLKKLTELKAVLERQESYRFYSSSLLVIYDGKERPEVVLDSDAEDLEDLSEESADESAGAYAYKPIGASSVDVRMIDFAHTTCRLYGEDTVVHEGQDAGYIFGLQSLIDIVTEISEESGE

Binding data for two substances are collected here from US20100129806A1.

Assay [1] concerns the target endogenous HSP90 of mouse brain (mouse) (UniProt P07901). The assay can be described thus: immunoprecipitation with HSP90 monoclonal antibody from mouse brain extract, IP6K2 immunoblot (FIG. 1D). On the technique in general: Immunoblotting shows a protein as a band on a membrane.
Assay [2] shares this target. The experiment in a line: co-immunoprecipitation from mouse brain.
Assay [3] concerns the target GST-HSP90 alpha fragment 629-732 (C-terminus, C), bacterially purified (human). The experiment in a line: in vitro binding of 250 nM GST-HSP90 WT and deletion constructs to immunoprecipitated myc-IP6K2, HSP90 immunoblot (FIG. 8B).
The target is the same in assay [4]. The experiment in a line: in vitro binding of GST-HSP90 deletion constructs to immunoprecipitated myc-IP6K2.

Consider “endogenous IP6K2 of mouse brain (from UniProt Q80V72 1-448) (enzyme)”, for which the binding result in assay [1] and in assay [2] was “binds” each time.

Regarding “myc-tagged IP6K2 (inositol hexakisphosphate kinase-2), wild type (from UniProt Q9UHH9 1-426) (enzyme)”, the binding result in assay [3] and in assay [4] was “binds” each time.
